Measurements: PubChem BioAssay AID1688 (National Center for Advancing Translational Sciences (NCATS), 2009)
The campaign covered roughly 220,000 compounds. About 2,400 (1.1%) were called active. This list was built around the results that the source calls inconclusive (neither active nor inactive); the mix of calls is not that of the screen. Calls follow the shape of the dose curve; as a rule, active = well fitted inhibition curve with a large enough effect; inconclusive = small, poorly fitted or top-dose-only effect, or effect the other way; inactive = no such curve, though single readings can be large or run the other way. Where the call is inconclusive, the potency comes from a doubtful curve fit.

Experiment: qHTS Multiplex Assay to Identify Dual Action Probes in a Cell Model of Huntington: Aggregate Formation (GFP); also: nearly all actives have a fitted effect of over 60% in size
Details: PC12 HttQ103-GFP aggregates, Acumen cytometry, 40 h; activity change, negative = inhibition: at 46.1 µM (top of the series) unless noted
Procedure, shortened: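 PC12 cells with ecdysone-inducible HTT exon1 Q103-GFP, induced by 100 nM tebufenozide, given compounds in a concentration series. GFP aggregates (1–25 um, 6 SD above background) counted in lysates by laser-scanning cytometry, 488 nm excitation.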
% is scaled to controls: 0 for no effect and ±100 for the full control effect; potency is read from the fitted curve at half-maximal effect.

Compound	Potency	activity change, negative = inhibition
CCCCNC(=O)Nc1ccccn1	inconclusive: 0.501 µM [activator, full curve, poor fit]	
CC(C)c1ccccc1OCCCCCNCCO		inactive: -6.75%
COCCN(Cc1cc2cc(C)c(C)cc2nc1Cl)C(=O)Nc1ccccc1	inconclusive: 35.5 µM [inhibitor, single point]	
CCOc1ccc(OCc2ccc(C(=O)N3CCCC(C)C3)cc2)cc1 (configuration not stated)	inconclusive: 35.5 µM [inhibitor, single point]	
CC(C)c1ccc(CN2CCN(C(=O)CCl)CC2)cc1	inconclusive: 14.1 µM [inhibitor, single point]	
Cc1ccc(S(=O)(=O)N(CC(=O)Nc2ccccc2C(=O)O)c2cccc(Cl)c2C)cc1	inconclusive: 35.5 µM [activator, single point]	
CC(C)(C)c1ccc(S(=O)(=O)N2CCC(c3nc4ccc(Cl)cc4[nH]3)CC2)cc1	inconclusive: 35.5 µM [inhibitor, single point]	
O=C(Nc1ccc(N2CCCC2)c(S(=O)(=O)Nc2cccc(C(F)(F)F)c2)c1)c1cccs1	inconclusive: 35.5 µM [inhibitor, single point]	
Fc1ccc2[nH]c3c(N4CCN(Cc5ccc6c(c5)OCO6)CC4)ncnc3c2c1	active: 3.55 µM	
COC(=O)c1c(NC(=O)CN2CCOCC2)sc2c1CCC(C)C2 (configuration not stated)	inconclusive: 35.5 µM [inhibitor, single point]	
Cc1cc(C)c(C)c(OCCCOc2cccc3cccnc23)c1	inconclusive: 22.4 µM [inhibitor, single point]	
Cc1c(C(=O)Nc2ccc3c(c2)OCCO3)sc2nc(-c3ccccc3)cn12	active: 15.8 µM	
Cc1cccc(N2CCN(C(=O)c3ccc4nc(-c5ccco5)c(-c5ccco5)nc4c3)CC2C)c1 (configuration not stated)	inconclusive: 31.6 µM [inhibitor, single point]	
CN(C)CCCN(Cc1ccccc1)C(=S)Nc1ccc(OC(F)F)cc1	inconclusive: 2.51 µM [inhibitor, single point]	
COc1ccc(C(=O)/C(C#N)=N/Nc2cccc([N+](=O)[O-])c2)cc1	inconclusive: 3.55 µM [inhibitor, single point]	
O=[N+]([O-])c1cccnc1N1CCC(c2cc(-c3ccc(Cl)cc3Cl)n[nH]2)CC1	inconclusive: 22.4 µM [inhibitor, single point]	
CN(C)CCN(C(=O)c1ccccc1Cl)c1nc2c(Cl)cccc2s1	inconclusive: 2.82 µM [inhibitor, single point]	
CC(C)(C)NNC(=S)Nc1cccc(C(F)(F)F)c1		inactive: 16.2% [at 9.22 µM]
CCOC(=O)c1ccccc1NS(=O)(=O)c1ccc(OC)cc1	inconclusive: 0.562 µM [inhibitor, full curve, poor fit]	
Cc1cc2c(cc1C)[n+](C)cn2CC(O)COCc1ccccc1 (configuration not stated)		inactive: -19.6%
CCOP(=O)(OCC)C(NC(=O)c1cc([N+](=O)[O-])cc([N+](=O)[O-])c1)C(F)(F)F (configuration not stated)		inactive: 30.4%
Cc1ccc(C)c(S(=O)(=O)C(C#N)c2nc3ccccc3nc2N2CCOCC2)c1 (configuration not stated)	inconclusive: 28.2 µM [inhibitor, single point]	
CCOc1ccc2nc(SCC(=O)NCc3ccc(OC)c(OC)c3)[nH]c2c1	inconclusive: 5.62 µM [inhibitor, single point]	
C=CCn1c(SCC(=O)N2CCN(c3ccc(F)cc3)CC2)nnc1-c1cccs1		inactive: 8.84%

Compound	Potency	activity change, negative = inhibition
C/C(CC(=O)NC1CCCCC1)=N\NC(=O)Cc1ccc(-c2ccccc2)cc1	inconclusive: 11.2 µM [inhibitor, single point]	
CCc1nc2ccccc2c(C(=O)OCC(=O)Nc2ccc(S(=O)(=O)N3CCOCC3)cc2)c1C	inconclusive: 35.5 µM [inhibitor, single point]	
Oc1ccc2ccccc2c1CN1CCN(c2ccccc2)CC1	inconclusive: 31.6 µM [activator, single point]	
CC(C)CCN(C(=O)Cc1ccc(Cl)c(Cl)c1)c1c(N)n(Cc2ccccc2)c(=O)[nH]c1=O	inconclusive: 35.5 µM [inhibitor, single point]	
CCCCC(=O)Nc1ccc(NC(=S)NC(=O)c2cccs2)cc1OC		inactive: 7.05%
N#Cc1c(-c2ccccc2Cl)noc1/C=C/Nc1ccc(C(=O)O)cc1	inconclusive: 35.5 µM [activator, single point]	
Cc1oc2c(c1C(=O)N1CCOCC1)C(=O)c1ccccc1C2=O	active: 10 µM	
Cc1nn2c3c(cnc2c1-c1ccccc1)C(=O)CC(c1ccco1)C3 (configuration not stated)	inconclusive: 3.55 µM [activator, single point]	
Cn1ncc(C#N)c1/N=C/N1CCOCC1	inconclusive: 8.91 µM [inhibitor, partial curve]	
CC(=O)N1CCN(c2ccc(Nc3ncnc4c3oc3ccccc34)cc2)CC1	active: 17.8 µM	
Cc1ccc(O)c(NC(=O)CSc2n[nH]c(C)c2[N+](=O)[O-])c1	inconclusive: 35.5 µM [inhibitor, single point]	
Cc1nc2ccccn2c(=O)c1CCN1CCC(C(=O)c2ccc(F)cc2)CC1	inactive	
COc1cc(CNC(C)(C)CO)cc(Br)c1OCc1ccc(Cl)cc1Cl	inconclusive: 10 µM [activator, partial curve]	
COCCCNC(=S)NNC(=O)c1ccccn1	inconclusive: 17.8 µM [inhibitor, single point]	
Cc1ccc(C(=O)Nc2nc(C(C)(C)C)cs2)s1	inconclusive: 31.6 µM [inhibitor, single point]	
Cc1nc(C)c(C(=O)N/N=C/c2cc(Br)ccc2O)s1	active: 1.26 µM	
Cc1ccc(NC(=O)c2ccc(CSc3ncnc4nc[nH]c34)cc2)c(C)c1		inactive: 12.5%
O=C(CSc1nc2ccccc2c(=O)n1CCCO)NCc1ccccc1		inactive: 13.2%
CC(=O)N1CC=C2C(C#N)=C(N)C(C#N)(C#N)[C@H](c3ccoc3)[C@H]2C1		inactive: -0.671%
CC(=O)c1ccc(N2CCN(C(=O)c3ccco3)CC2)c(F)c1	inconclusive: 0.1 µM [inhibitor, full curve]	
CC(C)Cn1c(N)c(C(=O)CSc2nnnn2C)c(=O)n(C)c1=O	inconclusive: 15.8 µM [inhibitor, single point]	
Cn1c(=O)c2c(ncn2CC(=O)N/N=C/C(Br)=C/c2ccccc2)n(C)c1=O	inconclusive: 20 µM [activator, single point]	
CCn1c(N)nc2ccccc21	inconclusive: 0.501 µM [activator, full curve, poor fit]	
Cc1cccc(-n2ncc3c(NCc4ccco4)ncnc32)c1	inconclusive: 10 µM [inhibitor, partial curve]	

Single entries from the entries so far.
Cc1ccc(NC(=O)c2ccc(CSc3ncnc4nc[nH]c34)cc2)c(C)c1 – activity change, negative = inhibition: inactive: 12.5%
CCCCNC(=O)Nc1ccccn1 – Potency: inconclusive: 0.501 µM [activator, full curve, poor fit]

Additional results follow:

Compound	Potency	activity change, negative = inhibition
CCc1cccc2c(C(=O)CSc3nncn3-c3ccccc3OC)c[nH]c12		inactive: 11.9%
COCCCn1c2nc3ccccc3nc2c2c(=O)n(-c3ccccc3OC)c(C)nc21		inactive: 13.3%
c1coc(CNc2c3c(nc4ccccc24)CCC3)c1	inconclusive: 35.5 µM [inhibitor, single point]	
CC(C)(C)NCCOCCOc1ccccc1-c1ccccc1		inactive: -4.65%
Cc1c(Cl)cccc1NC(=S)N=Nc1c(O)n(CN2CCOCC2)c2ccccc12		inactive: -21.6%
COc1nc(NCCN2CCOCC2)nc(Nc2ccc([N+](=O)[O-])cc2)n1	inconclusive: 1 µM [activator, full curve, poor fit]	
Cc1cc(C)cc(Oc2ccc(-c3nnc(-c4ccccc4)o3)cc2[N+](=O)[O-])c1	inconclusive: 28.2 µM [inhibitor, single point]	
CCCCc1ccc(NC(=S)NCc2ccc(OC)cc2)cc1	inconclusive: 15.8 µM [inhibitor, single point]	
Nc1ccccc1-c1nc2ccccc2s1		inactive: 2.37% [at 9.22 µM]
O=C(NCc1ccco1)c1ccccc1Nc1ccc(F)cc1	inconclusive: 22.4 µM [inhibitor, single point]	
COc1ccc(S(=O)(=O)N2CCCCCC2)cc1	inconclusive: 0.631 µM [inhibitor, full curve, poor fit]	
O=C(OCc1cc2ccccc2[nH]c1=O)c1ccncc1		inactive: 4.72%
CCN(CC)c1ccc(N=Cc2ccc(N(CC)CC)cc2O)cc1		inactive: -5.21%
CCN1C(=O)C2(C(C(=O)c3ccc(C)o3)=C(O)C(=O)N2CCCN2CCOCC2)c2ccccc21 (configuration not stated)	inconclusive: 12.6 µM [activator, single point]	
Cc1ccc(NC2=C(Cl)C(=O)c3ccccc3C2=O)cc1	active: 10 µM	
Cn1c(Cn2c(=O)sc3ccccc32)nnc1SCC(=O)NCc1ccc2c(c1)OCO2		inactive: -0.777%
CCOc1ccc(-n2ccnc2SCC(=O)N2CCCc3ccccc32)cc1	inconclusive: 35.5 µM [inhibitor, single point]	
CNc1nc2ccccc2n(C)c1=O		inactive: 1.17%
O=S(=O)(N/N=C/c1ccc2c(c1)OCCO2)c1ccc(Cl)cc1		inactive: 2.95%
COc1ccc(CCN(Cc2cc3cccc(C)c3n3nnnc23)C(=O)c2ccncc2)cc1OC		inactive: -2.25% [at 9.22 µM]
Cc1cc(/C=C2\SC(=S)N(Cc3ccco3)C2=O)c(C)n1-c1cccnc1	inconclusive: 35.5 µM [inhibitor, single point]	
CCCNC(=O)c1ccc(N(Cc2ccccc2)S(C)(=O)=O)cc1		inactive: 20%
COc1cc(C2C(Oc3ccccc3C)C(=O)N2Cc2ccc(F)cc2)cc(OC)c1OC (configuration not stated)	inconclusive: 35.5 µM [inhibitor, single point]	
CCn1nc(C)c(NS(=O)(=O)c2ccc(C)cc2)c1C	inconclusive: 35.5 µM [inhibitor, single point]	

Molecules above containing a CF3 group (3):
Compound	Potency	activity change, negative = inhibition
O=C(Nc1ccc(N2CCCC2)c(S(=O)(=O)Nc2cccc(C(F)(F)F)c2)c1)c1cccs1	inconclusive: 35.5 µM [inhibitor, single point]	
CC(C)(C)NNC(=S)Nc1cccc(C(F)(F)F)c1		inactive: 16.2% [at 9.22 µM]
CCOP(=O)(OCC)C(NC(=O)c1cc([N+](=O)[O-])cc([N+](=O)[O-])c1)C(F)(F)F (configuration not stated)		inactive: 30.4%
